Assay results reported in US20130131322A1.
Results are given in words; binding and its absence hold for the method and conditions named. Some results given as binding are weak or reduced against the parent protein; the word gives no strength.

Amino acid sequences for entries named in this document (tags omitted). A change or cut given only in a name is not applied to a line headed by its entry.
UniProt P01135: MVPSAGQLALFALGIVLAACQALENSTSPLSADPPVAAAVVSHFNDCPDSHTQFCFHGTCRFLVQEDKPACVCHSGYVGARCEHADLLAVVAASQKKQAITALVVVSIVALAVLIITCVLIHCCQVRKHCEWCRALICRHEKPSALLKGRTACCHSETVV

molecular target: proTGF-α-mH (human) (UniProt P01135); test: IP of proTGFα-mH

Binder | binding
MBL016-8 (antibody, mouse IgG2a, V domains shown) VH: VQLQQSGAELVRPGASVKLSCTASGFNIKDDYMYWVKQRPEQGLEWIGRIDPANGNTKYAPKFQDKATITADTSSNTAYLHLSSLTSEDTAVFYCAYRRAYWGQGTLVTVSA VL: DIQMTQSPSSLSASLGGKVTITCKASQDINKYIAWYQHKPGKGPRLFIHYTSKLQPGIPSRFSGSGSGRDYSFSISNLEPEDIATYYCLQYDNLLYTFGGGTKLEIK | binds
MBL018-1 (antibody, mouse IgG1, V domains shown) VH: EVQLQQSGTVLTRPGASVKMSCKASGYTFTNFWIHWVKQRPGQGLDWIGAIYPGNTNTDYNQKFQGKAKLTAVSSASTAYMELSSLTNEDSAVYYCTRGGAMDYWGQGTSVTVSS VL: IVMTQTPKLLPVSAGDRVTMTCKASQSVDNSVAWYQQKPGQSPKLLIFYASNHYTGVPDRFTASGSGTDFTFTISSVQVEDLAVYFCQQHFSSPRTFGGGTKLEIR | binds
MBL009-15 (antibody, mouse IgG1, V domains shown) VH: VQLQESGPGLVKPSQSLSLTCTVTGYSITSDYAWNWIRQFPGNKLEWMGYISYSGSTSYNPSLKSRISITRDTSKNQFFLQLNSVTTEDTATYYCARGGITRFAYWGQGTLVTVSA VL: DIQMTQTTSSLSASLGDRLTISCRASQDIRNYLNWYQQKPDGTVKLLIYYTSRLHSGVPSRFSGSGSGTDYSLTISNLEQEDIATYFCQQGNTLPWTFGGGTKLEIK | binds
MBL184-6 (antibody, mouse IgG1, V domains shown) VH: EVQLQQSGAELVRPGASVKLSCTVSGFNIKDDYMHWVKQRPEQGLEWIGRIDPANGHTKYAPKFQDKATITADTSSNTAYLQFSSLTSEDTAVYYCTRMGLRRGYWGQGTTLTVSS VL: IQMTQSSSSLSVSLGDRVTITCKASEHINSWLAWYQQKPGNAPRLLISGATNLKTGVPSRFSGSASGKDYTLNITSLQTEDVATYYCQQYWGTPWTFGGGTKLEIK | binds
MBL144-1 (antibody, mouse IgG1, V domains shown) VH: VQLQESGPGLAKPSQTLSLTCSVTGYSITSDYWNWIRKFPGNKLEYMGYISYSGSTYYNPSLKSRISITRDTSKNQYYLQLNSVTTEDTATYYCARSYDGICFDNWGQGTTLTVSS VL: DILMTQSPATLSVTPGETVSLSCRASQNTYKNLHWYQQKSHGTPKLLIKYASAPISGIPSRFTGSGSGTDYTLSINSVKPEDEGIYYCLQGYSMPWTFGGGTKLEIK | binds

The remaining lines, values ahead:

binding | Binder
binds | MBL259-3 (antibody, mouse IgG2a, V domains shown) VH: VQLQQSGAELVRPGASVKLSCTASDFNIKDDYMHWMKQRPEQGLEWIGRIDPANGNTKYAPKFQDKATMTADTSSNTAYLQFSSLTSEDTAVYYCATSWGFPYWGQGTLVTVSA VL: DIVMTQAAPSVPVTPGESVSISCRSSKSLLHRNGNTYLYWFLQRPGQSPQLLIYRMSNLASGVPDRFSGSGSGTAFTLRISRVEAEDVGVYYCLQHLEYPYTFGSGTKLEIK
binds | MBL292-1 (antibody, mouse IgG1, V domains shown) VH: VQLQQSGAELVRPGASVKLSCTASGFNIKDDYMHWMKQRPEQGLEWIGRIDPANGNTKYAPKFQDKATITADTSSNTAYLQLSSLTSEDTAVYYCSRMGLLRGYWGQGTTLTVSS VL: IQMTQSSSSLSVSLGDRVTITCKASVHINSWLAWYQQKPGNAPRLLISGATNLKTGVPSRFSGSASGKDYTLSITSLQTEDVATYYCQQYWDTPWTFGGGTKLEIK
binds | MBL352-34 (antibody, mouse IgG1, V domains shown) VH: VQLQQSGAELVRPGASVKLSCTASGFNIKDDYMHWVKQRPEQGLEWIGRIDPANGHTKYAPKFQDKATITADTSSNTAYLQFSSLTSEDTAVYYCTRMGLRRGYWGQGTTLTVSS VL: IQMTQSSSSLSVSLGDRVTITCKASEHINSWLAWYQQKPGNAPRLLISGATNLKTGVPSRFSGSASGKDYTLSITSLQTEDVATYYCQQYWGTPWTFGGGTKLEIK
